Data published in publication PMC4946998 (Journal of cellular physiology, 2016).
Like-named read-outs stand apart in the source and are kept apart here.

How the values were obtained:
[1] = system: MMP-8 mRNA transcripts; assay type: in vivo; conditions: WT (B6) mice, topical 0.1% Dex QID, naïve control as calibrator
[2] = system: MMP-1 immunoreactivity; Gr-1+ cells; conditions: WT mice, CM, topical Dex; not in MMP-8KO
[3] = system: Myeloperoxidase (MPO) activity; conditions: CM

Which “relative fold of MMP-8 gene expression in whole cornea (mean±SEM)” value ([1]; CM 2D) does the source give for `C[C@@H]1C[C@H]2[C@@H]3CCC4=CC(=O)C=C[C@]4(C)[C@@]3(F)[C@@H](O)C[C@]2(C)[C@@]1(O)C(=O)CO` [Dex, Dexamethasone] here?
The value was 2033.69±0.50 fold.

And the “relative fold of MMP-8 gene expression in whole cornea (mean±SEM)” value ([1]; CM 5D)?
Its value is 319.55±0.55 fold.

What about the “MMP-1 immunoreactivity by corneal epithelium” value [2] of the same compound?
Its value is “decreased MMP-1 immunoreactivity”.

And the “MPO activity versus BSS” value ([3]; MMP-8KO mice, topical Dex, still significantly higher than WT Dex treated)?
Its value is “significantly decreased MPO activity”.

And the “MPO activity in whole cornea lysates” value ([3]; WT mice, topical Dex (BSS 9.4 mU))?
Its value is 5.1 mU.
